Results of single-concentration screens

The values are deposited in ChEMBL (CHEMBL3988442, “University of Dundee, Small-Polar-MMV Screening Library” (2021)).

T. brucei: 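Whole-parasite assay of Trypanosoma brucei over 72 hours; the read-out is not stated. Concentration: 30 µM. Direction is inferred from retests: higher values go with stronger inhibition. Values scatter widely below zero; nearly all retest evidence comes from the higher of the two concentrations used. Of about 64,000 compounds tested this way, about 940 (1.5%) reached 50% or more in at least one test.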
Leishmania in macrophages: 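Cell assay of Leishmania donovani living inside macrophages; the read-out is not stated. Compounds at 30 µM. Direction is inferred from retests: higher values go with stronger inhibition. About 69,000 compounds were tested under these conditions; 1.5% (about 1,000) showed 50% or more at least once.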
Toxoplasma: 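Assay of Toxoplasma gondii numbers, read through their beta-galactosidase reporter with a colour substrate. Tested at 10 µM. Higher reads as fewer parasites (inferred from which compounds were picked for retests). Of about 67,000 compounds tested this way, about 260 (0.38%) reached 50% or more in at least one test.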

Values are the deposited “Percent Effect”, in %.
The controls that fix the scale are not given in the record; negative values are as filed.
Compounds were drawn at random from those tested, without regard to their results.
Two or more numbers in one place are separate tests of the same structure; such repeats can differ widely.

With Cl.Fc1ccccc1CNc1ccnc(C2CCNCC2)c1 the screen gave Leishmania in macrophages: -9.523%.
With COc1ccc(C(=O)Nc2ccccc2-c2ccc(=O)n(C)n2)nn1 the screen gave T. brucei: 4.435%; Leishmania in macrophages: 10.94% & 11.27%; Toxoplasma: 0.6435%.
With Cc1nc[nH]c1-c1nccn1CCN1CCCC1=O the screen gave T. brucei: -63.72%; Leishmania in macrophages: 6.181%; Toxoplasma: 5.811%.
With N#Cc1ccc(CNC(=O)NCCC(=O)NC2CCCC2)c(F)c1 the screen gave T. brucei: -22.75%; Leishmania in macrophages: 6.767%; Toxoplasma: -1.599%.
With Cc1[nH]c(=O)[nH]c(=O)c1CN1CCCC(CCc2ccc(F)cc2F)C1 (centres undefined) the screen gave T. brucei: 5.31%; Leishmania in macrophages: 2.848%; Toxoplasma: -1.913%.
With Cc1oc(C(=O)O)cc1S(=O)(=O)Nc1ccccc1F the screen gave T. brucei: -7.583%; Leishmania in macrophages: -2.339%; Toxoplasma: 10.42%.
With CCn1ccnc1CN1CCCN(C(=O)Cc2ccccc2C)CC1 the screen gave Leishmania in macrophages: -0.9206%; Toxoplasma: -2.905%.
With Cc1noc(C)c1C(=O)N1CCC2(CCc3ccccc3C(=O)N2)C1 (centres undefined) the screen gave T. brucei: 11.39%; Leishmania in macrophages: 19.31%; Toxoplasma: -38.7%.
With CCCC(=O)NCc1cc(Br)c(OC)c(OC)c1 the screen gave T. brucei: 25.66%; Leishmania in macrophages: 16.96%; Toxoplasma: -2.533%.
With CC(C)c1noc(C(C)Nc2nccc(CCC(F)(F)F)n2)n1 (centres undefined) the screen gave T. brucei: -27.6%; Leishmania in macrophages: -4.721%; Toxoplasma: -8.854%.
With CCC(Oc1ccc(N(C)S(C)(=O)=O)cc1)C(=O)N(C)C (centres undefined) the screen gave T. brucei: -8.952%; Leishmania in macrophages: -14.37%; Toxoplasma: -7.591%.
With CCn1ccc(NC(=O)c2cc(C)on2)n1 the screen gave T. brucei: -17.18%; Leishmania in macrophages: 11.69%; Toxoplasma: -0.5607%.
With Cc1ccc(C(=O)N2CCC3(CCC(C(=O)NCC4CC4)O3)CC2)o1 (centres undefined) the screen gave T. brucei: -12.22%; Leishmania in macrophages: 7.079%; Toxoplasma: -4.489%.
With O=C1CC2(CCN(Cc3ncc[nH]3)CC2)CN1Cc1cc(F)cc(F)c1 the screen gave T. brucei: -11.85%; Leishmania in macrophages: 28.23%; Toxoplasma: -6.479%.
With O=C(O)C(F)(F)F.O=C(O)C(F)(F)F.[H][C@@]12CN(Cc3cncn3C)C[C@]1([H])OCCN2Cc1c(C)noc1C the screen gave T. brucei: -3.338%; Leishmania in macrophages: -12.55%; Toxoplasma: 2.473%.
With CC(C)C(CNC(=O)Nc1cn[nH]c1)N1CCOCC1 (centres undefined) the screen gave Leishmania in macrophages: 2.472%; Toxoplasma: 17.61%.
With CCSCc1cccc(NC2CCN(C)C2=O)c1 (centres undefined) the screen gave T. brucei: -46.42%; Leishmania in macrophages: -1.156%; Toxoplasma: 1.622%.
With CC(=O)N(Cc1ncc(C)o1)C1CCN(CCNC2CCCCC2)C1 (centres undefined) the screen gave T. brucei: -26.02%; Leishmania in macrophages: 10.1%; Toxoplasma: -0.3721%.
With [H][C@@]12CN(C(=O)c3cnc(C)cn3)C[C@]1([H])C(=O)N(Cc1cccc(F)c1)C2 the screen gave T. brucei: 41.95%; Leishmania in macrophages: 18.97%; Toxoplasma: -4.529%.
With CCOCC1CN(CC2CC2)Cc2nn(C)cc21.O=C(O)C(F)(F)F (centres undefined) the screen gave T. brucei: -8.313%; Leishmania in macrophages: 22.42%; Toxoplasma: -2.882%.
With [H][C@@]12CCN(C(=O)N3CCOCC3)[C@]1([H])C(=O)N(Cc1ccccc1)C(=O)N2 the screen gave T. brucei: -10.12%; Leishmania in macrophages: 13.22%; Toxoplasma: -1.982%.
With CC(=O)N(C)CC(=O)Nc1cnc(-n2ccnc2)nc1 the screen gave T. brucei: -7.893%; Leishmania in macrophages: 26.73%; Toxoplasma: 2.391%.
With O=C(O)C(F)(F)F.[H][C@@]12CN(CC)CCO[C@]1([H])CN(C(=O)COC1CCCC1)C2 the screen gave Leishmania in macrophages: 8.421%; Toxoplasma: -5.036%.
With N#CCCN(Cc1ccccn1)C(=O)c1cccc(CN2CCCC2)c1 the screen gave T. brucei: -70.25%; Leishmania in macrophages: 26.3%; Toxoplasma: -3.643%.
With Cc1csc2ncn(C(C)Cc3cccnc3)c(=O)c12 (centres undefined) the screen gave T. brucei: -8.489%; Leishmania in macrophages: 20.11%; Toxoplasma: -11.25%.

Once more, the final 2:

| compound | T. brucei | Leishmania in macrophages | Toxoplasma |
|---|---|---|---|
| `N#CCCN(Cc1ccccn1)C(=O)c1cccc(CN2CCCC2)c1` | -70.25 | 26.3 | -3.643 |
| `Cc1csc2ncn(C(C)Cc3cccnc3)c(=O)c12` (centres undefined) | -8.489 | 20.11 | -11.25 |